{"source": "PubChem BioAssay AID248", "about": "(DTP/NCI, 2004)", "tested_on": "L1210 leukemia ip in BDF1 mice, survival T/C", "assay": "NCI In Vivo Anticancer Drug Screen. Data for tumor model L1210 Leukemia (intraperitoneal) in B6D2F1 (BDF1) mice", "conditions": "higher T/C = longer survival", "note": "The list shows only some results of the screen, not a fair sample: it is rich in T/C values a quarter to a half above the control, in often repeated tests (any T/C) and in doses without a T/C. Further doses and runs are listed elsewhere. T/C: endpoint of the treated group in % of that of the vehicle group. Some entries give survivors of the animals treated and no T/C: the source holds a T/C of zero for them, seemingly a mark for toxic or unscored doses. Some doses without a T/C left all or most animals alive at the check, yet need not have been tolerated: the source hardly ever lists a survival T/C far under the control, and the zero likely stands for such cases as well. Survivors were counted at the toxicity check, usually on the fifth day, unless a day is given; later deaths do not show. Schedules are NCI's codes, taken here to give the interval after Q, in days (D) or hours (H), and the number of doses after X. Some structures stand for samples that the source files as different forms (salt, stereo form or complex); doses refer to the form tested. For survival time, the PubChem record calls one and a half times the control and up active, and a quarter to a half above the control has no call in these data; cut-offs in other NCI protocols can differ. Some T/C values are followed by the survivors on the day toxicity was checked, most often the fifth; without a count, all were alive then. Some entries hold several experiments; the results are listed from low to high. Additions like (4×) count equal records among those shown.", "data": [{"smiles": "COc1cc2c[n+](C)c3c4cc5c(cc4ccc3c2cc1OC)OCO5", "values": [{"measurement": "survivor count", "setting": "T/C endpoint: mean survival time, dose: 1.0 mg/kg/injection, schedule: Q01DX009 (ip), vehicle: saline", "value": "10 of 10"}, {"measurement": "T/C", "setting": "T/C endpoint: mean survival time, dose: 1.0 mg/kg/injection, schedule: Q01DX009 (ip), vehicle: water", "value": "134 % of control"}, {"measurement": "T/C", "setting": "T/C endpoint: mean survival time, dose: 2.0 mg/kg/injection, schedule: Q01DX009 (ip), vehicle: saline, evaluated on day 30", "value": "102, 110, 119 % of control"}, {"measurement": "T/C", "setting": "T/C endpoint: mean survival time, dose: 2.0 mg/kg/injection, schedule: Q01DX009 (ip), vehicle: saline, evaluated on day 60", "value": "133 % of control"}, {"measurement": "survivor count", "setting": "T/C endpoint: mean survival time, dose: 2.0 mg/kg/injection, schedule: Q01DX009 (ip), vehicle: saline", "value": "10 of 10"}, {"measurement": "T/C", "setting": "T/C endpoint: mean survival time, dose: 2.0 mg/kg/injection, schedule: Q01DX009 (ip), vehicle: water", "value": "130 % of control"}, {"measurement": "T/C", "setting": "T/C endpoint: mean survival time, dose: 4.0 mg/kg/injection, schedule: Q01DX009 (ip), vehicle: saline, evaluated on day 30", "value": "111, 112 [5 of 6 alive], 120, 122 % of control"}, {"measurement": "T/C", "setting": "T/C endpoint: mean survival time, dose: 4.0 mg/kg/injection, schedule: Q01DX009 (ip), vehicle: saline, evaluated on day 60", "value": "141 % of control"}, {"measurement": "survivor count", "setting": "T/C endpoint: mean survival time, dose: 4.0 mg/kg/injection, schedule: Q01DX009 (ip), vehicle: saline", "value": "10 of 10"}, {"measurement": "T/C", "setting": "T/C endpoint: mean survival time, dose: 4.0 mg/kg/injection, schedule: Q01DX009 (ip), vehicle: water", "value": "131 % of control"}, {"measurement": "T/C", "setting": "T/C endpoint: mean survival time, dose: 5.0 mg/kg/injection, schedule: Q01DX009 (ip), vehicle: saline", "value": "126 % of control"}, {"measurement": "T/C", "setting": "T/C endpoint: mean survival time, dose: 8.0 mg/kg/injection, schedule: Q01DX009 (ip), vehicle: saline, evaluated on day 30", "value": "117 (2×), 118, 127 % of control"}, {"measurement": "T/C", "setting": "T/C endpoint: mean survival time, dose: 8.0 mg/kg/injection, schedule: Q01DX009 (ip), vehicle: saline, evaluated on day 60", "value": "126 % of control"}, {"measurement": "survivor count", "setting": "T/C endpoint: mean survival time, dose: 8.0 mg/kg/injection, schedule: Q01DX009 (ip), vehicle: saline", "value": "10 of 10"}, {"measurement": "T/C", "setting": "T/C endpoint: mean survival time, dose: 8.0 mg/kg/injection, schedule: Q01DX009 (ip), vehicle: water", "value": "134 % of control"}, {"measurement": "T/C", "setting": "T/C endpoint: mean survival time, dose: 10.0 mg/kg/injection, schedule: Q04DX003 (ip), vehicle: saline", "value": "132 % of control"}, {"measurement": "T/C", "setting": "T/C endpoint: mean survival time, dose: 16.0 mg/kg/injection, schedule: Q01DX009 (ip), vehicle: saline", "value": "109, 114, 119 % of control (2×)"}, {"measurement": "T/C", "setting": "T/C endpoint: mean survival time, dose: 20.0 mg/kg/injection, schedule: Q01DX009 (ip), vehicle: saline", "value": "141 % of control"}, {"measurement": "T/C", "setting": "T/C endpoint: mean survival time, dose: 20.0 mg/kg/injection, schedule: Q04DX003 (ip), vehicle: saline", "value": "131 % of control [5 of 6 alive]"}, {"measurement": "T/C", "setting": "T/C endpoint: mean survival time, dose: 32.0 mg/kg/injection, schedule: Q01DX009 (ip), vehicle: saline", "value": "121, 125, 127, 139 % of control"}, {"measurement": "T/C", "setting": "T/C endpoint: mean survival time, dose: 40.0 mg/kg/injection, schedule: Q04DX003 (ip), vehicle: saline", "value": "145 % of control"}, {"measurement": "T/C", "setting": "T/C endpoint: mean survival time, dose: 64.0 mg/kg/injection, schedule: Q01DX009 (ip), vehicle: saline", "value": "127 % of control [5 of 6 alive]"}, {"measurement": "survivor count", "setting": "T/C endpoint: median survival time, dose: 1.0 mg/kg/injection, schedule: Q03HX016 (ip), vehicle: saline", "value": "10 of 10"}, {"measurement": "T/C", "setting": "T/C endpoint: median survival time, dose: 2.0 mg/kg/injection, schedule: Q03HX024 (ip), vehicle: saline", "value": "128 % of control"}, {"measurement": "T/C", "setting": "T/C endpoint: median survival time, dose: 4.0 mg/kg/injection, schedule: Q03HX024 (ip), vehicle: saline", "value": "130 % of control"}, {"measurement": "T/C", "setting": "T/C endpoint: median survival time, dose: 8.0 mg/kg/injection, schedule: Q01DX009 (ip), vehicle: saline", "value": "128 % of control"}, {"measurement": "T/C", "setting": "T/C endpoint: median survival time, dose: 8.0 mg/kg/injection, schedule: Q03HX008 (ip), vehicle: saline", "value": "129 % of control [9 of 10 alive]"}, {"measurement": "T/C", "setting": "T/C endpoint: median survival time, dose: 8.0 mg/kg/injection, schedule: Q03HX016 (ip), vehicle: saline", "value": "133 % of control"}, {"measurement": "T/C", "setting": "T/C endpoint: median survival time, dose: 8.0 mg/kg/injection, schedule: Q03HX024 (ip), vehicle: saline", "value": "140 % of control"}, {"measurement": "T/C", "setting": "T/C endpoint: median survival time, dose: 16.0 mg/kg/injection, schedule: Q01DX009 (ip), vehicle: saline", "value": "129 % of control"}, {"measurement": "survivor count", "setting": "T/C endpoint: median survival time, dose: 16.0 mg/kg/injection, schedule: Q03HX016 (ip), vehicle: saline", "value": "4 of 10"}, {"measurement": "survivor count", "setting": "T/C endpoint: median survival time, dose: 16.0 mg/kg/injection, schedule: Q03HX024 (ip), vehicle: saline", "value": "8 of 10"}, {"measurement": "T/C", "setting": "T/C endpoint: median survival time, dose: 32.0 mg/kg/injection, schedule: Q01DX009 (ip), vehicle: saline", "value": "149 % of control"}, {"measurement": "survivor count", "setting": "T/C endpoint: median survival time, dose: 32.0 mg/kg/injection, schedule: Q03HX008 (ip), vehicle: saline", "value": "1 of 10"}, {"measurement": "survivor count", "setting": "T/C endpoint: median survival time, dose: 32.0 mg/kg/injection, schedule: Q03HX024 (ip), vehicle: saline", "value": "4 of 10"}, {"measurement": "T/C", "setting": "T/C endpoint: median survival time, dose: 32.0 mg/kg/injection, schedule: Q08DX002 (ip), vehicle: saline", "value": "128 % of control"}, {"measurement": "survivor count", "setting": "T/C endpoint: median survival time, dose: 64.0 mg/kg/injection, schedule: Q03HX008 (ip), vehicle: saline", "value": "0 of 10"}, {"measurement": "T/C", "setting": "T/C endpoint: median survival time, dose: 64.0 mg/kg/injection, schedule: Q08DX002 (ip), vehicle: saline", "value": "130 % of control"}, {"measurement": "survivor count", "setting": "T/C endpoint: median survival time, dose: 128.0 mg/kg/injection, schedule: Q01DX009 (ip), vehicle: saline", "value": "10 of 10"}, {"measurement": "T/C", "setting": "T/C endpoint: median survival time, dose: 256.0 mg/kg/injection, schedule: Q01DX001 (ip), vehicle: saline", "value": "130 % of control"}, {"measurement": "survivor count", "setting": "T/C endpoint: median survival time, dose: 256.0 mg/kg/injection, schedule: Q04DX003 (ip), vehicle: saline", "value": "10 of 10"}, {"measurement": "survivor count", "setting": "T/C endpoint: median survival time, dose: 512.0 mg/kg/injection, schedule: Q01DX001 (ip), vehicle: saline", "value": "4 of 10"}]}, {"smiles": "CCS(=O)c1ncc2cnccn12", "note": "(stereo not given)", "values": [{"measurement": "survivor count", "setting": "T/C endpoint: mean survival time, dose: 200.0 mg/kg/injection, schedule: Q01DX009 (ip), vehicle: water", "value": "1 of 6"}, {"measurement": "survivor count", "setting": "T/C endpoint: mean survival time, dose: 400.0 mg/kg/injection, schedule: Q04DX003 (ip), vehicle: water", "value": "0 of 6"}]}, {"smiles": "Cc1ccc(C)c(NC(=O)Oc2ccc(C(=O)OCc3ccccc3)cc2)c1", "values": [{"measurement": "survivor count", "setting": "T/C endpoint: mean survival time, dose: 400.0 mg/kg/injection, schedule: Q01DX009 (ip), vehicle: Klucel (hydroxypropylcellulose) (HPC)", "value": "5 of 6"}]}]}
